{"source": "the supplement of paper PMC8858631", "note": "Where a name gives a salt, the structure may show the parent alone. This is one part of the list. No stated cut-off is given here; in the data, active = 0.5 or less and inactive = the rest. Most values come without repeats; read them as rough."}
{"system": "SK-MEL-28", "test": "EEF2K protein level normalised to actin (western blot) after treatment (ratio (EEF2K/Actin)); higher = more EEF2K protein remaining (less EEF2K suppression)", "conditions": "5 µM; 24 h"}
{"smiles": "CC(C)[C@H]1C(=O)N[C@@H](CCCN=C(N)N)C(=O)NCC(=O)N[C@@H](CC(=O)O)C(=O)N[C@H](Cc2ccccc2)C(=O)N1C", "EEF2K protein level normalised to actin": "inactive: 1.91"}
{"smiles": "CNC(=O)c1cc(Oc2ccc(NC(=O)Nc3ccc(Cl)c(C(F)(F)F)c3)cc2)ccn1", "note": "[Sorafenib Tosylate]", "EEF2K protein level normalised to actin": "inactive: 1.44"}
{"smiles": "CNC(=O)c1ccccc1Sc1ccc2c(/C=C/c3ccccn3)n[nH]c2c1", "note": "[Axitinib]", "EEF2K protein level normalised to actin": "inactive: 0.64"}
{"smiles": "CONC(=O)Nc1ccc(-c2sc3c(c2CN(C)C)c(=O)n(-c2ccc(OC)nn2)c(=O)n3Cc2c(F)cccc2F)cc1", "note": "[Relugolix]", "EEF2K protein level normalised to actin": "inactive: 0.6"}
{"smiles": "CC[C@@]1(O)C(=O)OCc2c1cc1n(c2=O)Cc2cc3c([N+](=O)[O-])cccc3nc2-1", "note": "[Rubitecan]", "EEF2K protein level normalised to actin": "inactive: 5.85"}
{"smiles": "CC1=NN(c2ccc(C)c(C)c2)C(=O)/C1=N\\Nc1cccc(-c2cccc(C(=O)O)c2)c1O", "note": "[Eltrombopag Olamine]", "EEF2K protein level normalised to actin": "inactive: 2.29"}
{"smiles": "C#Cc1cccc(Nc2ncnc3cc(OCCOC)c(OCCOC)cc23)c1", "note": "[Erlotinib HCl (OSI-744)]", "EEF2K protein level normalised to actin": "inactive: 1.42"}
{"smiles": "C#Cc1cccc(Nc2ncnc3cc(OCCOC)c(OCCOC)cc23)c1", "note": "[Erlotinib]", "EEF2K protein level normalised to actin": "active: 0.48"}
{"smiles": "CC(C)=CCC[C@](C)(O[C@@H]1O[C@H](CO)[C@@H](O)[C@H](O)[C@H]1O)[C@H]1CC[C@]2(C)[C@@H]1[C@H](O)C[C@@H]1[C@@]3(C)CC[C@H](O)C(C)(C)[C@@H]3[C@@H](O[C@@H]3O[C@H](CO)[C@@H](O)[C@H](O)[C@H]3O)C[C@]12C", "note": "[Ginsenoside Rg1]", "EEF2K protein level normalised to actin": "inactive: 2.03"}
{"smiles": "CO[C@H]1C[C@@H]2CC[C@@H](C)[C@@](O)(O2)C(=O)C(=O)N2CCCC[C@H]2C(=O)O[C@H]([C@H](C)C[C@@H]2CC[C@@H](OC(=O)C(C)(CO)CO)[C@H](OC)C2)CC(=O)[C@H](C)/C=C(\\C)[C@@H](O)[C@@H](OC)C(=O)[C@H](C)C[C@H](C)/C=C/C=C/C=C/1C", "EEF2K protein level normalised to actin": "inactive: 1.49"}
